Data published in patent publication US20240181006A1, “POLYPEPTIDES BINDING ADAMTS5, MMP13 AND AGGRECAN” (Merck Patent GmbH, priority 2017, published 2024).
No constants are given. Whether binding was seen depends on the method and setting. Some results given as binding are weak or reduced against the parent protein; the word gives no strength.

Chains of the proteins cited; added tags and fusions are not shown. Lines headed by an entry give the natural chain unless they say otherwise; changes in a name come on top.
UniProt Q9UNA0: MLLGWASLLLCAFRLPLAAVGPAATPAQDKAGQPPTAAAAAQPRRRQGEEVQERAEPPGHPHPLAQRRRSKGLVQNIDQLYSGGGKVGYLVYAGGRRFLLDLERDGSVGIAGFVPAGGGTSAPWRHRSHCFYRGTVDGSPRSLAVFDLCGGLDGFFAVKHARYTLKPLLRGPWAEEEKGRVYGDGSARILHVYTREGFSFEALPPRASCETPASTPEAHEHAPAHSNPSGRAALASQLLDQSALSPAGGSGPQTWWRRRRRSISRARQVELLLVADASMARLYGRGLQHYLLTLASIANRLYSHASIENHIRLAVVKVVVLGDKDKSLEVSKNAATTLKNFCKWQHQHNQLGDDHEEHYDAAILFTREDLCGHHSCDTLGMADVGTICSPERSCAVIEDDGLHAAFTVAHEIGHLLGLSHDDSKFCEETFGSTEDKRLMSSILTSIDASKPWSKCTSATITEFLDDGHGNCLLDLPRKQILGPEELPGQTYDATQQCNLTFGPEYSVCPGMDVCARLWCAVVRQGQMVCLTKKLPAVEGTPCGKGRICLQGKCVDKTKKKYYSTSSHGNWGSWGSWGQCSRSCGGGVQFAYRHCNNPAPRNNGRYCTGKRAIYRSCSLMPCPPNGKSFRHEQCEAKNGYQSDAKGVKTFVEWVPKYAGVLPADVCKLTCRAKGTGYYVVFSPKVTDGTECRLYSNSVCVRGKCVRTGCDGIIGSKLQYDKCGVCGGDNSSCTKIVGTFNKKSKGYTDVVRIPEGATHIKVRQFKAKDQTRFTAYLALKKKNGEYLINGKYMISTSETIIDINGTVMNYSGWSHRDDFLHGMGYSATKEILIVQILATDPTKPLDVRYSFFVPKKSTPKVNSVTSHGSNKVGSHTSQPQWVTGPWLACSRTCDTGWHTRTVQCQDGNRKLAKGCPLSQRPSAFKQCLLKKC

Legend:
[1] = target: human ADAMTS5 (human) (UniProt Q9UNA0); assay: screening; binding ELISA on recombinant human ADAMTS5
[2] = target: cynomolgus ADAMTS5 (cynomolgus); assay: SPR off-rate analysis
[3] = target: human ADAMTS5 (human) (UniProt Q9UNA0); assay: SPR off-rate analysis

Measured: binding

B1: anti-ADAMTS5 ISVD 02F03 (VHH)
VHH: EVQLVESGGGVVQPGGSLRLSCAASGRTVSSYAMGWFRQAPGKEREFVAGISRSAERTYYVDSLKGRFTISRDNSKNTVYLQMNSLRPEDTALYYCAADLDPNRIFSREEYAYWGQGTLVTVSS
binds: [1] | [2] | [3]
